# Reference: the supplement of paper PMC8104966
# Where a name gives a salt, the structure may show the parent alone. Some of the results follow. Single values are uncertain here, since repeats match poorly.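 U2OS cells carrying ACE2 were mixed with U2OS cells carrying full-length spike, and fusion was scored by imaging as the share of nuclei showing both cell types' fluorescent markers. A compound counts as an inhibitory hit when it is non-toxic and its fusion z-score falls below -3, meaning more than three standard deviations below the plate's DMSO wells.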
# System: U2OS ACE2 x SARS-CoV-2 spike co-culture
# Test: cell-cell fusion (fraction fused) z-score vs plate DMSO control; higher = more fusion
# Conditions: 30 µM; 5 h; toxicity class: non-toxic, passed QC
row,Structure (SMILES),cell-cell fusion (z-score)
1,O=C(O)C1CCCNC1 (racemic) [(±)-Nipecotic acid],inactive: 1.25
2,Cl.NC1CCN(c2c(F)cc3c(=O)c(C(=O)O)cn(C4CC4)c3c2Cl)C1 (centres undefined),inactive: 1.27
3,Nc1cc(N2CCCCC2)nc(N)[n+]1[O-] [Minoxidil],inactive: 2.52
4,CNCCCC1c2ccccc2C=Cc2ccccc21.Cl [Protriptyline hydrochloride],inactive: 1.64
5,CNCCCC1c2ccccc2C=Cc2ccccc21.Cl,inactive: 2.39
6,Br.CN(C)CCCC1(c2ccc(F)cc2)OCc2cc(C#N)ccc21 (centres undefined) [Citalopram hydrobromide],inactive: 1.03
7,Br.CN(C)CCCC1(c2ccc(F)cc2)OCc2cc(C#N)ccc21 (centres undefined),inactive: 2.29
8,Nc1nc(F)nc2c1ncn2[C@@H]1O[C@H](CO)[C@@H](O)[C@@H]1O [Fludarabine],inactive: 0.73
9,COc1cc(O)cc(C(=O)c2ccccc2)c1S(=O)(=O)O,inactive: 2.35
10,CN(C)CCn1nnnc1SCC1=C(C(=O)O)N2C(=O)[C@@H](NC(=O)Cc3csc(N)n3)[C@H]2SC1.Cl.Cl [Cefotiam hydrochloride],inactive: 2.58
11,CO[C@@]12[C@H](COC(N)=O)C3=C(C(=O)C(C)=C(N)C3=O)N1C[C@@H]1N[C@@H]12,inactive: 1.34
12,Cc1ccc(NC(=O)c2ccc(CN3CC[C@H](N(C)C)C3)c(C(F)(F)F)c2)cc1Nc1ncc(-c2cncnc2)cn1 [Bafetinib (INNO-406)],inactive: 3.41
13,CC(=O)O[C@]1(C(C)=O)CC[C@H]2[C@@H]3C[C@H](C)C4=CC(=O)CC[C@]4(C)[C@H]3CC[C@@]21C [Medroxyprogesterone Acetate],inactive: 2.15
14,Cc1cccc(C(=O)O)c1O,inactive: 1.4
15,Cl.Nc1ccn([C@@H]2O[C@H](CO)[C@@H](O)[C@@H]2O)c(=O)n1 [Cytosine-1-beta-D-arabinofuranoside hydrochloride],inactive: 1.82
16,C=C1/C(=C\C=C2/CCC[C@]3(C)[C@@H]([C@H](C)CCCC(C)(C)O)CC[C@@H]23)C[C@@H](O)C[C@@H]1O [Calcitriol],inactive: -1.02
17,Oc1ccc(OCc2ccccc2)cc1 [Monobenzone],inactive: 1.75
18,O=c1c(-c2ccccc2)coc2ccccc12,inactive: 2.97
19,O=C(/C=C/C#Cc1cccc(NS(=O)(=O)c2ccccc2)c1)NO [Oxamflatin],inactive: 1.83
20,CCCCOc1ccc(OCCCN2CCOCC2)cc1.Cl [Pramoxine hydrochloride],inactive: 2.34
21,O=C(Nc1cc(C(F)(F)F)cc(C(F)(F)F)c1)Nc1c(Br)cc(Br)cc1-c1nnn[nH]1,inactive: 5.09
22,N=C1NC(=O)N2CC12 (centres undefined),inactive: 3.69

row,Structure (SMILES),cell-cell fusion (z-score)
1,O=C(O)c1cc(O)c2ccccc2n1 [Kynurenic acid],inactive: 2.97
2,C#CCN(C)CC1=Cc2ccccc2Oc2ccccc21.O=C(O)/C=C\C(=O)O,inactive: 1.98
3,CC(C)C(C)/C=C/C(C)C1CCC2C3=CC=C4CC(O)CCC4(C)C3CCC21C (centres undefined),inactive: 0.599
4,CC[C@@H](C(=O)C(C)[C@@H](O)[C@H](C)CCc1ccc(C)c(O)c1C(=O)[O-])C1OC(CC)(C2CC[C@](O)(CC)[C@H](C)O2)C[C@@H]1C.[Na+] (some centres undefined),active: -11.6
5,CC(C)COCC(CN(Cc1ccccc1)c1ccccc1)N1CCCC1.Cl (centres undefined) [Bepridil hydrochloride],inactive: 2.25
6,CC(C)COCC(CN(Cc1ccccc1)c1ccccc1)N1CCCC1.Cl (centres undefined),inactive: 0.709
7,Br.COc1ccc2c(c1)C13CCCCC1C(C2)N(C)CC3 (centres undefined) [Dextromethorphan hydrobromide monohydrate],inactive: 2.26
8,CCCC(CCC)C(=O)[O][Na] [Valproic acid sodium salt (Sodium valproate)],inactive: 1.23
9,C=C[C@H]1C[N@@]2CC[C@H]1C[C@H]2[C@H](O)c1ccnc2ccccc12,inactive: 0.517
10,COc1cc(-c2coc3cc(OC)c(OC)c(OC)c3c2=O)cc(OC)c1OC,inactive: 1.31
11,Oc1cc(O)c2c(c1)O[C@H](c1cc(O)c(O)c(O)c1)[C@H](O)C2,inactive: 2.6
12,C[C@@H](O)[C@H]1C(=O)N2C(C(=O)O)=C(SC3CN[C@H](C(=O)N(C)C)C3)[C@H](C)[C@H]12 (some centres undefined),inactive: 2.4
13,CCC(C)n1ncn(-c2ccc(N3CCN(c4ccc(OC[C@H]5CO[C@](Cn6cncn6)(c6ccc(Cl)cc6Cl)O5)cc4)CC3)cc2)c1=O.Cl.Cl (some centres undefined),inactive: 3.29
14,NC[C@H](O)c1ccc(O)c(O)c1.O.O=C(O)[C@H](O)[C@@H](O)C(=O)O [Noradrenaline bitartrate monohydrate],active: -3
15,"Cl.OC[C@H]1NC[C@@H](O)[C@@H]1O [1,4-Dideoxy-1,4-imino-D-arabinitol]",inactive: 3.19
16,O=C([O-])Cc1ccccc1Nc1c(Cl)cccc1Cl.[Na+] [Diclofenac sodium],inactive: 4.03
17,CN(C)CCOC(C)(c1ccccc1)c1ccccn1.O=C(O)CCC(=O)O (centres undefined) [Doxylamine succinate],inactive: 1.58
18,CN(C)CCOC(C)(c1ccccc1)c1ccccn1.O=C(O)CCC(=O)O (centres undefined),inactive: 1.58
19,CCCCCCNC(=O)n1cc(F)c(=O)[nH]c1=O,inactive: 2.59
20,CCCCCCNC(=O)n1cc(F)c(=O)[nH]c1=O [Carmofur],inactive: 1.86
21,COc1ccccc1CNCCCCCCNCCCCCCCCNCCCCCCNCc1ccccc1OC.Cl.Cl.Cl.Cl [Methoctramine tetrahydrochloride],inactive: 2.19
22,N[C@@H](Cn1ccc(=O)c(O)c1)C(=O)O [L-Mimosine from Koa hoale seeds],inactive: 1.8

# Retrieved one by one from above (two):
row,Structure (SMILES),cell-cell fusion (z-score)
17,CN(C)CCOC(C)(c1ccccc1)c1ccccn1.O=C(O)CCC(=O)O (centres undefined) [Doxylamine succinate],inactive: 1.58
3,CC(C)C(C)/C=C/C(C)C1CCC2C3=CC=C4CC(O)CCC4(C)C3CCC21C (centres undefined),inactive: 0.599
